Measurements taken from PubChem BioAssay AID504834 (National Center for Advancing Translational Sciences (NCATS), 2011).
The campaign covered roughly 320,000 compounds. About 22,000 (6.9%) were called active. Inconclusive results, whose numbers are uncertain, are shown with a selection of clear calls. The call rests on the fitted dose curve; in most records, active means well fitted inhibition curve with a large enough effect; inconclusive means small, poorly fitted or top-dose-only effect, or another doubt; inactive means no such curve, though single readings can be large or run the other way. A potency beside an inconclusive call is a rough fit, not a confirmed value.
Potency means the concentration at half of the fitted maximal effect.

Assay: Primary qHTS for delayed death inhibitors of the malarial parasite plastid, 96 hour incubation
Conditions: P. falciparum luciferase reporter growth; series mostly up to 28.7 µM
Outline: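 Compounds incubated with erythrocytes infected by luciferase-expressing P. falciparum (2% hematocrit, 0.05% parasitemia final) for 96 hours, 37 C in 5% CO2. Growth inhibition scored as decreased luciferase luminescence.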
With `Cc1ccc(NC(=O)c2ccc3c(c2)S(=O)(=O)c2ccccc2C3=O)cc1S(=O)(=O)N1CCOCC1` the Potency was inconclusive: 1.85 µM [inhibitor, partial curve].
With `NC(=S)/N=C/c1c(O)[nH]c(=O)[nH]c1=O` the Potency was inconclusive: 2.33 µM [inhibitor, full curve].
With `CN1CCN(C(=S)c2cn(Cc3ccccc3F)c3ccccc23)CC1` the Potency was inconclusive: 1.65 µM [inhibitor, full curve].
In the case of `COc1cc(/C=C/c2nnc3c4ccccc4ncn23)cc(OC)c1OC`, the Potency is reported as inconclusive: 9.28 µM [inhibitor, single point].
In the case of `CCC(=O)N(CC)Cc1cc(=O)[nH]c2ccccc12`, the Potency is reported as inconclusive: 13.1 µM [inhibitor, partial curve, poor fit].
In the case of `NNC(=O)c1sc2cc(C(F)(F)F)cnc2c1-c1ccccn1`, the Potency is reported as “inactive”.
For `O=C(O)c1cc(N/N=C/c2ccc(N3CCOCC3)s2)ccc1Cl`, the Potency was “inactive”.
For `Nc1cc(Cl)ccc1N1CCCC1`, the Potency was inconclusive: 0.329 µM [inhibitor, full curve, poor fit].
In the case of `Cn1cc(C(=O)c2ccccc2)cc1-c1nc2ccccc2n1C`, the Potency is reported as inconclusive: 18.5 µM [inhibitor, single point].
With `Cn1nc(C(=O)Nc2ccccc2)c2c1-c1ccccc1S(=O)(=O)C2` the Potency was “inactive”.
For `CCOc1cc(/C=N\NC(=O)CC(=O)NCCc2ccccc2)ccc1O`, the Potency was inconclusive: 14.7 µM [inhibitor, single point].
For `Cc1ccccc1NS(=O)(=O)c1ccc(NC(=O)N2CCCCC2)cc1`, the Potency was “inactive”.
In the case of `CC(=O)c1ccc(-c2ccc([C@H]3[C@H]4C=CC[C@@H](C)[C@@H]4C(=O)N3Cc3ccccc3)c(F)c2)cc1`, the Potency is reported as inconclusive: 3.7 µM [inhibitor, full curve].
For `O=C(CSc1nnnn1Cc1ccccc1)NC1CCCCC1`, the Potency was inconclusive: 10.4 µM [inhibitor, single point].
For `CCOC(=O)c1c(CC(C)C)csc1NC=O`, the Potency was inconclusive: 1.47 µM [inhibitor, full curve, poor fit].
In the case of `CCOc1cc(C)c(S(=O)(=O)NC2CC(C)(C)NC(C)(C)C2)cc1C`, the Potency is reported as inconclusive: 5.86 µM [inhibitor, partial curve, poor fit].
With `CCC1CCCCN1C(=O)CSc1nnc(CNC(=O)c2cc(OC)c(OC)c(OC)c2)o1` (stereo not given) the Potency was inconclusive: 13.1 µM [inhibitor, single point].
In the case of `Cn1c(SCc2ccccc2)nnc1-c1ccncc1`, the Potency is reported as “inactive”.
In the case of `O=C(O)Cn1c2c(c3ccccc31)CSc1ccc(Cl)cc1-2`, the Potency is reported as “inactive”.
In the case of `O=C(NNS(=O)(=O)c1ccccc1)c1ccc(S(=O)(=O)N2CCCCC2)cc1`, the Potency is reported as inconclusive: 18.5 µM [inhibitor, single point].
In the case of `CNC(=S)N1CCc2cc(OC)c(OC)cc2C1COc1ccc(OC)cc1` (stereo not given), the Potency is reported as inconclusive: 9.28 µM [inhibitor, partial curve, poor fit].
In the case of `Cc1ccc(NC(=S)/N=C(\N)Nc2nc(C)c3cc(C)c(C)cc3n2)cc1C`, the Potency is reported as active: 10.4 µM.
For `COc1ccccc1/C=C/C(=O)NC(=S)NC(C)C`, the Potency was inconclusive: 13.1 µM [inhibitor, single point].
For `COc1ccc(C(=O)CSc2nnc(-c3ccccn3)n2Cc2ccco2)cc1`, the Potency was inconclusive: 18.5 µM [inhibitor, single point].
With `COc1cc(OC)cc(-c2nnc(SCC(=O)N3CCOCC3)o2)c1` the Potency was “inactive”.
For `Cc1ccc(CN=C2NC(=O)C(CC(=O)NCCc3ccccc3)S2)cc1` (stereo not given), the Potency was inconclusive: 0.165 µM [inhibitor, full curve].
For `COc1ccc(C)cc1S(=O)(=O)N(CC(=O)NCc1ccc(Cl)cc1)Cc1ccccc1`, the Potency was active: 11.7 µM.
In the case of `Cc1ccc(Cc2c(C)nc3nc(SCC(=O)NCCCN4CCCCC4)nn3c2C)cc1`, the Potency is reported as “inactive”.
For `Cc1sc2nc(C(C)Nc3ccccc3N3CCOCC3)[nH]c(=O)c2c1C` (stereo not given), the Potency was active: 6.57 µM.
With `CCCC(=O)Nc1ccc(C(=O)Nc2cccc(OC)c2)cc1` the Potency was “inactive”.
In the case of `CCOc1ccc(-n2c(O)c(/C=N/Nc3nc(C)cc(C)n3)c3ccccc3c2=O)cc1`, the Potency is reported as inconclusive: 10.4 µM [inhibitor, partial curve, poor fit].
For `CCOP(=O)(c1ccccc1)c1nc(-c2ccccc2C)oc1NCc1ccccc1` (stereo not given), the Potency was inconclusive: 11.7 µM [inhibitor, single point].
In the case of `Brc1ccccc1-c1nnc(COc2ncnc3c2cnn3-c2ccccc2)o1`, the Potency is reported as “inactive”.
With `Cc1sc2ncn(-n3c(C)ccc3C)c(=O)c2c1C` the Potency was inconclusive: 10.4 µM [inhibitor, single point].
In the case of `COc1ccc(C(=O)c2c3ccccc3[n+]([O-])n2Cc2ccc(C(N)=O)cc2)cc1`, the Potency is reported as active: 6.57 µM.
In the case of `CCCn1c(N)c(N(CCOC)C(=O)CCC2CCCCC2)c(=O)[nH]c1=O`, the Potency is reported as “inactive”.
With `Cc1ccc(C2C(C#N)=C(N)SC(N)=C2C#N)o1` the Potency was “inactive”.
With `CC(=O)N1c2ccc(S(=O)(=O)N3CCCC3)cc2CC1C(=O)NC(C)C` (stereo not given) the Potency was inconclusive: 18.5 µM [inhibitor, single point].
In the case of `O=C(NCc1ccccc1)C1(CC2CC(c3ccccc3)=NO2)CCNCC1` (stereo not given), the Potency is reported as inconclusive: 10.4 µM [inhibitor, single point].
In the case of `O=C(CSc1n[nH]c(=O)n1Cc1ccco1)N1CCOCC1`, the Potency is reported as “inactive”.
With `CCCSc1nc2c(cnn2-c2ccc(Cl)cc2)c(=O)[nH]1` the Potency was inconclusive: 0.185 µM [inhibitor, full curve, poor fit].
For `Cc1cc(NC(=O)/C(C#N)=C/c2ccc(-c3cccc(C(F)(F)F)c3)o2)n(-c2ccccc2)n1`, the Potency was inconclusive: 13.1 µM [inhibitor, single point].
In the case of `Cc1ccc(NC(=O)C(Nc2cccc(C)c2)c2ccccc2)cc1` (stereo not given), the Potency is reported as inconclusive: 14.7 µM [inhibitor, single point].
For `CCOC(=O)N1CCN(C(C)C(=O)c2c[nH]c3ccccc23)CC1` (stereo not given), the Potency was inconclusive: 11.7 µM [inhibitor, single point].
For `CCOc1ccc2c(c1)nc(SCC(=O)c1ccc(Br)s1)n2C`, the Potency was inconclusive: 10.4 µM [inhibitor, single point].
